In doi:10.1101/2025.05.28.656678:
Read-outs that look alike come from different tables or passages of the source. These are yes or no findings as the source states them, for the method shown. For part of these data: Binding seen in cells or lysates may run through a third protein. Some entries that bind do so weakly or less than the wild type. For part of these data: Tags and fused reporters may be left off the sequences shown. Values belong to the molecule of their own block, whether it stands above or below them.

Chains of the proteins cited; added tags and fusions are not shown.
UniProt P33176: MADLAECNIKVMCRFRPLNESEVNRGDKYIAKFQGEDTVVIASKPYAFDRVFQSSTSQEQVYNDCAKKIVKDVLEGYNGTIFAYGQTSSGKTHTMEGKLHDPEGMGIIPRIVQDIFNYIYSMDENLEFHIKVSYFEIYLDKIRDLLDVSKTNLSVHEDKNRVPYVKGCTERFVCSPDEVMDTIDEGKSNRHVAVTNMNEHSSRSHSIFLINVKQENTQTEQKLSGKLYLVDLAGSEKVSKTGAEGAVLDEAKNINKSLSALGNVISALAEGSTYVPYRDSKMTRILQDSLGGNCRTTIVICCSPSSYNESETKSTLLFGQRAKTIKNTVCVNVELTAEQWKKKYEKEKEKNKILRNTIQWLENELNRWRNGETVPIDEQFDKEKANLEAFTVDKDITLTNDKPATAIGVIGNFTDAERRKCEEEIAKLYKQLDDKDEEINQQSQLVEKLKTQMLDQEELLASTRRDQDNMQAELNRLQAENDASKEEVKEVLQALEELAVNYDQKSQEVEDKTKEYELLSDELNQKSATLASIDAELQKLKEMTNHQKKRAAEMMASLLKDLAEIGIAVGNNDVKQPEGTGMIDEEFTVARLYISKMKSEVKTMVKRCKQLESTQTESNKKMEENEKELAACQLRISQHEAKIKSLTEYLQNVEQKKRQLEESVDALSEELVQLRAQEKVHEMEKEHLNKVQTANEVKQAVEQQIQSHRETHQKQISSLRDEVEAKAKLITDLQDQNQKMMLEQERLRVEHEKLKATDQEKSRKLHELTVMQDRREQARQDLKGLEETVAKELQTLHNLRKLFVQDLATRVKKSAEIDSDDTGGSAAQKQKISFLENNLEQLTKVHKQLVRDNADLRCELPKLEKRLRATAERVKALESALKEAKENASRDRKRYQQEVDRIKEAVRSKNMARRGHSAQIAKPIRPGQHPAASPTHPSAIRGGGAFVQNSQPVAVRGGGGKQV
UniProt Q61768: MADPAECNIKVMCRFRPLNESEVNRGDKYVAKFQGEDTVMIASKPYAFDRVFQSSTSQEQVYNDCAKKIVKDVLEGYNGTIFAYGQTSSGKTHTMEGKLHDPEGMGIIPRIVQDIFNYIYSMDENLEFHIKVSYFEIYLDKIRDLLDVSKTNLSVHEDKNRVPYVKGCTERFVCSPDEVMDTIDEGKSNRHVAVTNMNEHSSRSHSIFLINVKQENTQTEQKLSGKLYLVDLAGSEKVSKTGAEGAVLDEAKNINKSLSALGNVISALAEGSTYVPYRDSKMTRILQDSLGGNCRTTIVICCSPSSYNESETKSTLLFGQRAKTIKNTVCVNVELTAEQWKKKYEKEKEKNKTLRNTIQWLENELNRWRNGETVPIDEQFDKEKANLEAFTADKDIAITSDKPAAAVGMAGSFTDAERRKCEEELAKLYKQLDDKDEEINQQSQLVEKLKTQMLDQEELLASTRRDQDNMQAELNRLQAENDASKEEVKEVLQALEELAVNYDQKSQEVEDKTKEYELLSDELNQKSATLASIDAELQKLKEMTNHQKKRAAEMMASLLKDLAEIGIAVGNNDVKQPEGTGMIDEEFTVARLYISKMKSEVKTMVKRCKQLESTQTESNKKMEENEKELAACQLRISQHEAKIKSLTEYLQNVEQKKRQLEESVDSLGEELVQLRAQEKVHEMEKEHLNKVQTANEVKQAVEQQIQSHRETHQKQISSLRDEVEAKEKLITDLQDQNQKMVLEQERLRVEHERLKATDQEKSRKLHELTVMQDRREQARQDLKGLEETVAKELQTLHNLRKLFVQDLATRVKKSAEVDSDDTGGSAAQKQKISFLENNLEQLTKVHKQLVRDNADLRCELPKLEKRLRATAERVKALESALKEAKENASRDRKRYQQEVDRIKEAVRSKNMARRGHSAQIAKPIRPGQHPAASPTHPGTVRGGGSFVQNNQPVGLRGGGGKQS
UniProt O94901: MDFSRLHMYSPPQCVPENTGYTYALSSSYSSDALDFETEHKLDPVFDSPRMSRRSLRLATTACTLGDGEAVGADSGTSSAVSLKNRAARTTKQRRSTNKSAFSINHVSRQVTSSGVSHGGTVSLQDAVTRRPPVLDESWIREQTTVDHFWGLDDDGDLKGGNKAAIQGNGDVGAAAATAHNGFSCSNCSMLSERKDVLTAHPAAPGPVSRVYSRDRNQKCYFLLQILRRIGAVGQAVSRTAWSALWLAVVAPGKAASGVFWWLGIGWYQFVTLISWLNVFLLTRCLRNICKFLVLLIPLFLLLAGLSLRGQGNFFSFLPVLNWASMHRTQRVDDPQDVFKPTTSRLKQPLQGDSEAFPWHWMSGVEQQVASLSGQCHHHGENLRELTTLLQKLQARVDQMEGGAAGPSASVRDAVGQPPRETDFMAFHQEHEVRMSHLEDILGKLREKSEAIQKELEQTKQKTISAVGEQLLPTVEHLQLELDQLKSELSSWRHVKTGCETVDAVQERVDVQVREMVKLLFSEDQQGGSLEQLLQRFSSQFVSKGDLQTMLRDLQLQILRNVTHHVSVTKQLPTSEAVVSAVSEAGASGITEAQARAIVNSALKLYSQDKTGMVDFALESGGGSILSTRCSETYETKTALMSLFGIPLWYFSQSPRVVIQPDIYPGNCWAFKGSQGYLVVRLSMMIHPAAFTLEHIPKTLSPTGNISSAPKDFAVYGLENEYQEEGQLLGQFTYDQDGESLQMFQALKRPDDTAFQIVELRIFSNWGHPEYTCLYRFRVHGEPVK

Tests used:
[1] = molecular target: T1, KASH5 (mouse (endogenous in testis)) (UniProt Q80VJ8); test: co-IP
T1 sequence: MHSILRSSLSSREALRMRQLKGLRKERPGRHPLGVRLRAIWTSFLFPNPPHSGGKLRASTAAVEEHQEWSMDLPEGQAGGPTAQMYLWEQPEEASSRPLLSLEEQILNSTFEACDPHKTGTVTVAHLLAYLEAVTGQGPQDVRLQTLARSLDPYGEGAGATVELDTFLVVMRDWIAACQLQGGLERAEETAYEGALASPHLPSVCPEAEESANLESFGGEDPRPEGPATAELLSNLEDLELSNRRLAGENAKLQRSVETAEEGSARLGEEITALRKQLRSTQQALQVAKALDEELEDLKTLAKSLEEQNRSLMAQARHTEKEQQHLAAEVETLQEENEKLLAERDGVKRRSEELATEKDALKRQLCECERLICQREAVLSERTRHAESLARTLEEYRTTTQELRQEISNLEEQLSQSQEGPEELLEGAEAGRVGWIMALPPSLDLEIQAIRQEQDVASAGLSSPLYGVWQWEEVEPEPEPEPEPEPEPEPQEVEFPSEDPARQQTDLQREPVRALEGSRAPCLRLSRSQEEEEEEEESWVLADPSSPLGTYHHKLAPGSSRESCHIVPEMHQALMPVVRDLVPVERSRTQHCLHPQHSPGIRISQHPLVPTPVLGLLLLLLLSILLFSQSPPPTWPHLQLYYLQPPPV

[2] = molecular target: T2, mouse KASH5 (70-579 amino acids) (mouse) (UniProt Q80VJ8); test: two-hybrid
T2 sequence: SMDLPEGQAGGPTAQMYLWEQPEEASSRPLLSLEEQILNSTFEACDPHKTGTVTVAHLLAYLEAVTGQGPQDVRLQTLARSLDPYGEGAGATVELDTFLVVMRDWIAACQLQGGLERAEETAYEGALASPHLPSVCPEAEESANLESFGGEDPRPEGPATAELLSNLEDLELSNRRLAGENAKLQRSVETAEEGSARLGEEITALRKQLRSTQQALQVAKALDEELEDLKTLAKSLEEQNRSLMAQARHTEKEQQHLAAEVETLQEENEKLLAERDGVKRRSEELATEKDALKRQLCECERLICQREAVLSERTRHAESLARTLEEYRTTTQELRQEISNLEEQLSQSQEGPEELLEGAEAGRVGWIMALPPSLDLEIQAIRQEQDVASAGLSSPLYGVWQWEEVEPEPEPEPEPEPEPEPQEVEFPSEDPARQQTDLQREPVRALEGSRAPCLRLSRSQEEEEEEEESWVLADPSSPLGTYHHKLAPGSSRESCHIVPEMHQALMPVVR

FLAG-KASH5-FL (human) = molecular target: T3, FLAG-KASH5-FL (human) (UniProt Q8N6L0); test: co-IP
T3 sequence: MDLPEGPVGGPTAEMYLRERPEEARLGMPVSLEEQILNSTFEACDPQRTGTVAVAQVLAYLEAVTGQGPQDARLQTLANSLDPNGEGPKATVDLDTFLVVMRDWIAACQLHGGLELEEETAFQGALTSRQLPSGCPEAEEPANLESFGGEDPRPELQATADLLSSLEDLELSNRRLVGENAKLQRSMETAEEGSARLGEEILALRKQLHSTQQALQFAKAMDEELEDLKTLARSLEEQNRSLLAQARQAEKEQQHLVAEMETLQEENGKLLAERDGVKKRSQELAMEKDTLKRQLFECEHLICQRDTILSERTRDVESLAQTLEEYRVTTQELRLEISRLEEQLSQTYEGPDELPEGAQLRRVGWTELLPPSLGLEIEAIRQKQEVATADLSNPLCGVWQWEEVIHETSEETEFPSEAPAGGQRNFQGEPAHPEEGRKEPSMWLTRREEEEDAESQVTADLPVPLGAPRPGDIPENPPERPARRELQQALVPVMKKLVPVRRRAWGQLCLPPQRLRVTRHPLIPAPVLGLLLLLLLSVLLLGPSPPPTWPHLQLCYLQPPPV

[3] = molecular target: KIF5B (endogenous, HeLa) (human (endogenous in HeLa)) (UniProt P33176); test: co-IP
[4] = molecular target: KIF5B (mouse (endogenous in testis)) (UniProt Q61768); test: co-IP
[5] = molecular target: KIF5B (endogenous, HeLa) (human (endogenous in HeLa)) (UniProt P33176); test: co-IP; remark: listed apart in the source
[6] = molecular target: KIF5B (endogenous, Neuro 2) (mouse (endogenous in Neuro 2)) (UniProt Q61768); test: co-IP
KIF5B-Halo [7] = molecular target: KIF5B-Halo (UniProt P33176); test: TIRF microscopy single-molecule binding assay
KIF5B-Halo [8] = molecular target: KIF5B-Halo (UniProt P33176); test: co-sedimentation

Molecule: SUN1-myc (from UniProt O94901 1-785)
binding (FLAG-KASH5-FL (human)): binds | binding [3]: binds

B1: KASH5 (protein, UniProt Q80VJ8 1-648)
chain: MHSILRSSLSSREALRMRQLKGLRKERPGRHPLGVRLRAIWTSFLFPNPPHSGGKLRASTAAVEEHQEWSMDLPEGQAGGPTAQMYLWEQPEEASSRPLLSLEEQILNSTFEACDPHKTGTVTVAHLLAYLEAVTGQGPQDVRLQTLARSLDPYGEGAGATVELDTFLVVMRDWIAACQLQGGLERAEETAYEGALASPHLPSVCPEAEESANLESFGGEDPRPEGPATAELLSNLEDLELSNRRLAGENAKLQRSVETAEEGSARLGEEITALRKQLRSTQQALQVAKALDEELEDLKTLAKSLEEQNRSLMAQARHTEKEQQHLAAEVETLQEENEKLLAERDGVKRRSEELATEKDALKRQLCECERLICQREAVLSERTRHAESLARTLEEYRTTTQELRQEISNLEEQLSQSQEGPEELLEGAEAGRVGWIMALPPSLDLEIQAIRQEQDVASAGLSSPLYGVWQWEEVEPEPEPEPEPEPEPEPQEVEFPSEDPARQQTDLQREPVRALEGSRAPCLRLSRSQEEEEEEEESWVLADPSSPLGTYHHKLAPGSSRESCHIVPEMHQALMPVVRDLVPVERSRTQHCLHPQHSPGIRISQHPLVPTPVLGLLLLLLLSILLFSQSPPPTWPHLQLYYLQPPPV
binding [4]: binds

B2: FLAG-KASH5-FL (protein, UniProt Q8N6L0 1-562)
chain: MDLPEGPVGGPTAEMYLRERPEEARLGMPVSLEEQILNSTFEACDPQRTGTVAVAQVLAYLEAVTGQGPQDARLQTLANSLDPNGEGPKATVDLDTFLVVMRDWIAACQLHGGLELEEETAFQGALTSRQLPSGCPEAEEPANLESFGGEDPRPELQATADLLSSLEDLELSNRRLVGENAKLQRSMETAEEGSARLGEEILALRKQLHSTQQALQFAKAMDEELEDLKTLARSLEEQNRSLLAQARQAEKEQQHLVAEMETLQEENGKLLAERDGVKKRSQELAMEKDTLKRQLFECEHLICQRDTILSERTRDVESLAQTLEEYRVTTQELRLEISRLEEQLSQTYEGPDELPEGAQLRRVGWTELLPPSLGLEIEAIRQKQEVATADLSNPLCGVWQWEEVIHETSEETEFPSEAPAGGQRNFQGEPAHPEEGRKEPSMWLTRREEEEDAESQVTADLPVPLGAPRPGDIPENPPERPARRELQQALVPVMKKLVPVRRRAWGQLCLPPQRLRVTRHPLIPAPVLGLLLLLLLSVLLLGPSPPPTWPHLQLCYLQPPPV
binding [5]: binds

B3: FLAG-KASH5-FL (in Neuro 2 cells) (protein, UniProt Q8N6L0 1-562)
chain: MDLPEGPVGGPTAEMYLRERPEEARLGMPVSLEEQILNSTFEACDPQRTGTVAVAQVLAYLEAVTGQGPQDARLQTLANSLDPNGEGPKATVDLDTFLVVMRDWIAACQLHGGLELEEETAFQGALTSRQLPSGCPEAEEPANLESFGGEDPRPELQATADLLSSLEDLELSNRRLVGENAKLQRSMETAEEGSARLGEEILALRKQLHSTQQALQFAKAMDEELEDLKTLARSLEEQNRSLLAQARQAEKEQQHLVAEMETLQEENGKLLAERDGVKKRSQELAMEKDTLKRQLFECEHLICQRDTILSERTRDVESLAQTLEEYRVTTQELRLEISRLEEQLSQTYEGPDELPEGAQLRRVGWTELLPPSLGLEIEAIRQKQEVATADLSNPLCGVWQWEEVIHETSEETEFPSEAPAGGQRNFQGEPAHPEEGRKEPSMWLTRREEEEDAESQVTADLPVPLGAPRPGDIPENPPERPARRELQQALVPVMKKLVPVRRRAWGQLCLPPQRLRVTRHPLIPAPVLGLLLLLLLSVLLLGPSPPPTWPHLQLCYLQPPPV
binding [6]: binds

Second part, the molecule after the results:

binding [1]: binds
Molecule: KIF5B (from UniProt Q61768 1-963)

binding [2]: binds
Molecule: mouse KIF5B (1-963 amino acids) (from UniProt Q61768 1-963)

binding (KIF5B-Halo [7]): binds | binding (KIF5B-Halo [8]): binds
B4: Halo-KASH5 1-400 (domain or fragment, UniProt Q8N6L0 1-400)
chain: MDLPEGPVGGPTAEMYLRERPEEARLGMPVSLEEQILNSTFEACDPQRTGTVAVAQVLAYLEAVTGQGPQDARLQTLANSLDPNGEGPKATVDLDTFLVVMRDWIAACQLHGGLELEEETAFQGALTSRQLPSGCPEAEEPANLESFGGEDPRPELQATADLLSSLEDLELSNRRLVGENAKLQRSMETAEEGSARLGEEILALRKQLHSTQQALQFAKAMDEELEDLKTLARSLEEQNRSLLAQARQAEKEQQHLVAEMETLQEENGKLLAERDGVKKRSQELAMEKDTLKRQLFECEHLICQRDTILSERTRDVESLAQTLEEYRVTTQELRLEISRLEEQLSQTYEGPDELPEGAQLRRVGWTELLPPSLGLEIEAIRQKQEVATADLSNPLCGVWQ
modifications: Halo-TMR label (in the TIRF assay)
